Sequences of proteins named here, by UniProt entry; tags and fusion partners are left off. A change or cut given only in a name is not applied to a line headed by its entry.
UniProt O94782: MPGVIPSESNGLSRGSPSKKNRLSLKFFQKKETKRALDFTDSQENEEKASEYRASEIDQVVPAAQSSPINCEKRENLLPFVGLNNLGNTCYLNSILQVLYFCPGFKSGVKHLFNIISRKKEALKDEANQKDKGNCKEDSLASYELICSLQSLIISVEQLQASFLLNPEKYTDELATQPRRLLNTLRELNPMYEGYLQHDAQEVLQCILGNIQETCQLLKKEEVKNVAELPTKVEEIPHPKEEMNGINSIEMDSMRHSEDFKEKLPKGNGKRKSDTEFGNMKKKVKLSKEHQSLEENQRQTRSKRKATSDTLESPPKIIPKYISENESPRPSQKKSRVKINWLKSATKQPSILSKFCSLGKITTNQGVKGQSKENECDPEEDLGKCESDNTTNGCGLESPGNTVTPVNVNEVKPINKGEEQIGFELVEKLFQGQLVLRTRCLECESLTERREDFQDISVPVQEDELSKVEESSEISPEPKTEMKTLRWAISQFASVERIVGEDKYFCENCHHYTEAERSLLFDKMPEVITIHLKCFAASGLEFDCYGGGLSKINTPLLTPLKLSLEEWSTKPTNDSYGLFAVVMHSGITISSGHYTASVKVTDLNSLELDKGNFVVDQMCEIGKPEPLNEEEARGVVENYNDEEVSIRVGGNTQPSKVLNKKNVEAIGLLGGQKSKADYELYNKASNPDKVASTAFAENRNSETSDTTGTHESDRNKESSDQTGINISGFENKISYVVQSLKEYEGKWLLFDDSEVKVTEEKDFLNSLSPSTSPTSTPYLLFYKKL

Out of some 390,000 compounds screened, about 910 (0.23%) were called active. Inconclusive means that the source gave no clear call. Such entries were picked first, then a sample of the others. The call rests on the fitted dose curve; in most records, active means well fitted inhibition curve with a large enough effect; inconclusive means small, poorly fitted or top-dose-only effect; inactive means no such curve, though single readings can be large or run the other way. A potency beside an inconclusive call is a rough fit, not a confirmed value.
These compounds were tested against Ubiquitin carboxyl-terminal hydrolase 1 (Homo sapiens) (UniProt O94782) (assay: Inhibitors of USP1/UAF1: Primary Screen). Conditions: recombinant USP1/UAF1, Ub-Rhodamine cleavage fluorescence; activity change, negative = inhibition: at 57.1 µM (top of the series).
Outline: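 USP1/UAF1 complex (1 nM) preincubated 15 min at room temperature with compound, then Ub-Rho substrate (150 nM final) added. Kinetic fluorescence at 480/540 nm over 6 reads at 60 s intervals; 50 mM HEPES pH 7.8, 0.5 mM EDTA, 0.1 mg/ml BSA, 1 mM TCEP, 0.01% Tween-20.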
With CCOC(=O)c1cccc(NC(=O)C2CCCN(S(=O)(=O)c3cc(Br)cc4c3N(C(=O)CC)CC4)C2)c1 (stereo not given) the Potency was inconclusive: 35.5 µM [inhibitor, partial curve]. In the case of COc1ccc(CN(C(=O)Cc2coc3ccc(C)cc23)C2CCS(=O)(=O)C2)cc1 (stereo not given), the Potency is reported as inconclusive: 0.316 µM [inhibitor, full curve, poor fit]. In the case of COc1ccc(OC)c(CCNC(=O)c2cc3c(=O)n(C)c4ccccc4c3n2C)c1, the Potency is reported as inconclusive: 50.1 µM [inhibitor, partial curve, poor fit]. With O=C(c1cc(F)cc(F)c1)N1CCC(c2nc(-c3ccc(S(=O)(=O)N4CCCC4)cc3)no2)CC1 the Potency was inconclusive: 2.51 µM [inhibitor, full curve]. In the case of CCOc1ccc(NC(=O)CN2CCN(c3ccc(Cl)cc3)CC2)cc1, the Potency is reported as inconclusive: 39.8 µM [inhibitor, partial curve]. For Cc1ccc(O)c(-c2n[nH]c3c2C(c2ccccc2F)N(Cc2ccco2)C3=O)c1 (stereo not given), the Potency was inconclusive: 56.2 µM [inhibitor, partial curve, poor fit]. Cc1ccc(-c2nc3ncccc3o2)cc1NC(=O)c1cc2ccccc2o1 was tested, and the Potency was inconclusive: 44.7 µM [inhibitor, partial curve]. In the case of C[C@@]12C(=O)N(c3ccc(Br)cc3)C(=O)N1[C@@H]1c3ccccc3OC[C@@H]1[C@H]2c1ccccc1, the Potency is reported as inconclusive: 3.55 µM [inhibitor, full curve]. In the case of COc1cc(F)ccc1S(=O)(=O)N1CCN(Cc2ccccc2)CC1, the “activity change, negative = inhibition” value is reported as inactive: -15.4%. For O=C1c2ccc3c4c(ccc(c24)C(=O)N1CCCCO)C(=O)N(CCCCO)C3=O, the Potency was inconclusive: 11.2 µM [inhibitor, full curve]. With Cc1nc2c(nnn2Cc2ccccc2)c(=O)[nH]1 the Potency was inconclusive: 14.1 µM [inhibitor, partial curve]. O=C(O)COc1ccc(NC(=O)C(c2ccccc2)c2ccccc2)cc1 was tested, and the “activity change, negative = inhibition” value was inactive: -10.3%. O=C1c2cccc([N+](=O)[O-])c2C(=O)N1CCO was tested, and the “activity change, negative = inhibition” value was inactive: -1.78%. Cc1ccc(OC(=O)CSc2nnc(-c3cccs3)o2)c(C)c1 was tested, and the Potency was inconclusive: 70.8 µM [inhibitor, partial curve, poor fit]. For CCOc1cc(C2C(C(=O)OC)=C(C)NC3=C2C(=O)c2ccccc23)cc(Br)c1OCC (stereo not given), the “activity change, negative = inhibition” value was inactive: -28.4%. In the case of CCc1nc(SCC(=O)c2ccc3c(c2)OCCO3)c2ccccc2n1, the Potency is reported as inconclusive: 50.1 µM [inhibitor, partial curve, poor fit]. With Cc1ccc2c(C)c(C(=O)NCCc3ccco3)oc2c1C the Potency was inconclusive: 39.8 µM [inhibitor, partial curve]. For O=C(CN(Cc1cccs1)C(=O)CNS(=O)(=O)c1ccccc1)NC1CCCC1, the Potency was inconclusive: 2 µM [inhibitor, partial curve]. With Cc1ccc(C2NC(=O)c3c(sc4c3CCN(C)C4)N2)s1 (stereo not given) the Potency was inconclusive: 28.2 µM [inhibitor, single point]. In the case of COc1ccc(S(=O)(=O)N(C)C[C@H]2Oc3ccc(NC(=O)C4CCCCC4)cc3C(=O)N([C@H](C)CO)C[C@@H]2C)cc1, the Potency is reported as inconclusive: 56.2 µM [inhibitor, partial curve, poor fit]. With COc1ccccc1CN1CCC(n2nccc2NC(=O)c2ccccc2Cl)CC1 the “activity change, negative = inhibition” value was inactive: -23.2%. In the case of CN(C)c1ccc(/C=N/n2ncc3ccccc32)cc1, the “activity change, negative = inhibition” value is reported as inactive: 11.6%. For Cc1ccc(CN2CC(C(=O)N3CCN(c4ccccc4Cl)CC3)CC2=O)cc1 (stereo not given), the “activity change, negative = inhibition” value was inactive: -27.1%. In the case of COc1ccc(Cn2c(CCC(=O)Nc3ccccc3OC)nc3cccnc32)cc1, the Potency is reported as inconclusive: 39.8 µM [inhibitor, partial curve, poor fit]. In the case of COc1ccccc1CN1[C@@H](CC(=O)O)c2ccccc2S1(=O)=O, the Potency is reported as inconclusive: 50.1 µM [inhibitor, partial curve, poor fit]. For Cc1nc(-c2ccccc2O)n(S(=O)(=O)N(C)C)n1, the “activity change, negative = inhibition” value was inactive: -17%. For O=C(Nc1ccc(F)cc1)Nc1csc2ccccc12, the Potency was inconclusive: 11.2 µM [inhibitor, partial curve, poor fit]. In the case of Cc1ccc(-c2nnn3c2nc(NCc2ccc4c(c2)OCO4)c2ccccc23)cc1, the “activity change, negative = inhibition” value is reported as inactive: -29.6%. For O=C(c1sc2cc([N+](=O)[O-])ccc2c1Cl)N1CCOCC1, the Potency was inconclusive: 0.282 µM [inhibitor, full curve, poor fit]. CC(=O)N(C)C1=C(O)c2ccccc2C(=O)C1=O was tested, and the Potency was inconclusive: 28.2 µM [inhibitor, partial curve]. For Cc1ccc(SC2=C(Sc3ccc(C)cc3)C(=O)c3ccccc3C2=O)cc1, the Potency was inconclusive: 35.5 µM [inhibitor, partial curve]. For CC(=O)Nc1ccc(N2C(=O)c3cccc4c(O)ccc(c34)C2=O)cc1, the Potency was active: 28.2 µM. With O=C(CCS(=O)(=O)c1cccc2nonc12)Nc1ccc(F)cc1F the “activity change, negative = inhibition” value was inactive: -20%. In the case of O=C(NC1(C(F)(F)F)NC(=O)N(C2CCCCC2)C1=O)c1cccs1 (stereo not given), the Potency is reported as inconclusive: 22.4 µM [inhibitor, partial curve]. CC1Cc2nc(SCC(=O)Nc3nccs3)n(C)c(=O)c2S1 (stereo not given) was tested, and the Potency was inconclusive: 39.8 µM [inhibitor, partial curve]. In the case of CN1/C(=C\C(=O)Nc2ccc(Br)cc2)C(C)(C)c2ccccc21, the “activity change, negative = inhibition” value is reported as inactive: -8.63%. With Cc1cc([N+](=O)[O-])nn1CCCC(=O)Nc1sc2c(c1C(N)=O)CCCC2 the Potency was inconclusive: 0.355 µM [inhibitor, full curve, poor fit]. With Cc1ccc(C)c(NC(=O)CN(C)C(=O)c2cc([N+](=O)[O-])ccc2N2CCOCC2)c1 the Potency was inconclusive: 12.6 µM [inhibitor, partial curve]. For CC1CCN(c2c(NCC3CCC(C(=O)NCc4ccccc4)CC3)c(=O)c2=O)CC1 (stereo not given), the Potency was inconclusive: 0.631 µM [inhibitor, full curve]. For CN(CC(=O)NCC1CCCCC1)S(=O)(=O)c1ccc(F)cc1, the Potency was inconclusive: 50.1 µM [inhibitor, partial curve, poor fit]. CCOc1ccccc1CNc1nc2nc(C)c(CC(=O)OC)c(=O)n2[nH]1 was tested, and the Potency was inconclusive: 7.94 µM [inhibitor, partial curve, poor fit]. With CCCCNC(=O)c1sc2ncccc2c1-n1cccc1 the Potency was inconclusive: 50.1 µM [inhibitor, partial curve, poor fit]. For CS(=O)(=O)n1nc(-c2ccc(Cl)cc2)nc1N, the Potency was inconclusive: 6.31 µM [inhibitor, partial curve]. In the case of COCCNC(=O)/C(C#N)=C\c1ccc(CNS(=O)(=O)c2ccccc2)o1, the Potency is reported as inconclusive: 3.55 µM [inhibitor, partial curve]. For Cc1ccc(C(C)C)cc1NC(=O)Nc1ccc([N+](=O)[O-])cc1, the Potency was inconclusive: 39.8 µM [inhibitor, partial curve]. For Cc1csc2nc(-c3cccc(NC(=O)c4c(F)cccc4F)c3)cn12, the Potency was inconclusive: 50.1 µM [inhibitor, partial curve, poor fit]. In the case of Cn1c(SC(C(=O)Nc2ccc(F)cc2)c2ccccc2)nc2ccccc21 (stereo not given), the “activity change, negative = inhibition” value is reported as inactive: -17%. With Cc1cccc(-c2cc3nc4c(c(N5CCOCC5)n3n2)CCCC4)c1 the Potency was inconclusive: 39.8 µM [inhibitor, partial curve]. O=C(Nc1ccc(C(=O)OCc2cc(=O)n3c4c(sc3n2)CCCC4)cc1)c1cccc(F)c1 was tested, and the Potency was inconclusive: 0.562 µM [inhibitor, full curve, poor fit]. With COC(/C=C/Nc1ccc(C)cc1)=C(C#N)C#N the Potency was inconclusive: 0.316 µM [inhibitor, full curve, poor fit]. For COC(=O)c1ccc(-n2cncn2)c([N+](=O)[O-])c1, the Potency was inconclusive: 6.31 µM [inhibitor, single point]. For N#C/C(=C(\O)Cc1ccccc1)c1nc2ccccc2[nH]1, the Potency was inconclusive: 44.7 µM [inhibitor, partial curve]. With O=C(NCC1CC1)c1onc(CSc2ccc(F)c(F)c2)c1C(=O)NCC1CC1 the Potency was inconclusive: 8.91 µM [inhibitor, partial curve, poor fit]. In the case of CCc1ccc(OCC(=O)Nc2ccncc2)cc1, the “activity change, negative = inhibition” value is reported as inactive: -21.9%. For O=c1cc(-c2ccccc2)nc2c(-c3ccccc3)c(C(F)(F)F)[nH]n12, the “activity change, negative = inhibition” value was inactive: -22.7%. Cc1cc2c(cc1S(=O)(=O)Nc1cccc(Cl)c1C)OCCN2C was tested, and the “activity change, negative = inhibition” value was inactive: -24%. In the case of COc1ccccc1C(=O)Nc1nnc(-c2ccc3c(c2)CCCC3)o1, the “activity change, negative = inhibition” value is reported as inactive: -27.4%. With COc1ccc(-c2noc(C3CC(=O)N(c4ccccc4)C3)n2)c(OC)c1 (stereo not given) the “activity change, negative = inhibition” value was inactive: -20.2%. For CCCCOC(=O)c1cc(=O)[nH]c(=O)[nH]1, the Potency was inconclusive: 7.94 µM [inhibitor, partial curve, poor fit]. In the case of COCCCNC(=O)Cn1nnc(-c2ccccc2NC(=O)c2ccc(F)cc2)n1, the Potency is reported as inconclusive: 25.1 µM [inhibitor, single point]. In the case of CCOC(=O)c1cc(C#N)c(SCC(=O)c2cc(C#N)c(SC)nc2C)[nH]c1=O, the Potency is reported as inconclusive: 22.4 µM [inhibitor, single point]. O=C(Nc1ccccc1)C1CCN(S(=O)(=O)c2ccc3[nH]c4c(c3c2)CCCCC4)CC1 was tested, and the Potency was inconclusive: 2 µM [inhibitor, full curve, poor fit]. In the case of CS(=O)(=O)Nc1ccc(C(=O)NCCSCc2c(F)cccc2Cl)cc1, the Potency is reported as inconclusive: 44.7 µM [inhibitor, partial curve, poor fit]. CCc1c(C)sc2c1CCN(C(=O)Nc1ccc(F)c(Cl)c1)C2c1ccc(F)cc1 (stereo not given) was tested, and the “activity change, negative = inhibition” value was inactive: -9.16%. For CCCOC(=O)c1ccc(Cn2nnc3sc4c(c3c2=O)CCC(C)C4)cc1 (stereo not given), the “activity change, negative = inhibition” value was inactive: -9.77%.

Source: PubChem BioAssay AID743255 (National Center for Advancing Translational Sciences (NCATS), 2014)
Further: nearly all actives have a fitted effect of over 60% in size.
On the % scale 0 is the no-effect control and ±100 the full control effect; potency means the concentration at half of the fitted maximal effect.
